Assay results reported in PubChem BioAssay AID248 (DTP/NCI, 2004).
The list is a part of this screen's results and no random one: it is rich in T/C values a quarter to a half above the control, in often repeated tests (any T/C) and in doses without a T/C. Other doses and runs of a compound stand elsewhere. T/C: endpoint of the treated group in % of that of the vehicle group. Some doses have a count of surviving animals in place of a T/C: the source files T/C as zero there, which appears to mark a toxic dose or a test without result, not a measured value. Some doses without a T/C left all or most animals alive at the check, yet need not have been tolerated: survival well below the control is almost never listed, so the zero probably covers shortened survival too. Counts of survivors are from the toxicity check (mostly the fifth day) where no day follows; animals may have died later. Schedule codes are those of the source, read here as Q, the interval in days (D) or hours (H), X, the number of doses. Some schedules carry Z or #; the key to these is not given. For survival time, this PubChem deposit counts one and a half times the control or more as active, and values a quarter to a half above the control carry no call in these data; other NCI protocols may use other cut-offs.

System: L1210 leukemia ip in BDF1 mice, survival T/C
Assay: NCI In Vivo Anticancer Drug Screen. Data for tumor model L1210 Leukemia (intraperitoneal) in B6D2F1 (BDF1) mice
Conditions: T/C endpoint: mean survival time, higher T/C = longer survival
[1] = dose: 400.0 mg/kg/injection, schedule: Q04DX003 (ip), vehicle: saline with Tween-80

CCCCC(=O)OCC1OC(n2cnc3c(=S)nc[nH]c32)C(OC(=O)CCCC)C1OC(=O)CCCC (stereo unspecified)
T/C (dose: 100.0 mg/kg/injection, schedule: Q01DX Z (ip), vehicle: carboxymethylcellulose (CMC)): 146 % of control
T/C (dose: 200.0 mg/kg/injection, schedule: Q01DX015 (ip), vehicle: carboxymethylcellulose (CMC)): 131 % of control
survivor count (dose: 400.0 mg/kg/injection, schedule: Q01DX015 (ip), vehicle: carboxymethylcellulose (CMC)): 4 of 6
survivor count (dose: 800.0 mg/kg/injection, schedule: Q01DX015 (ip), vehicle: carboxymethylcellulose (CMC)): 0 of 6
survivor count (dose: 800.0 mg/kg/injection, schedule: Q01DX Z (ip), vehicle: carboxymethylcellulose (CMC)): 4 of 6

CC(O)CC[P+](c1ccccc1)(c1ccccc1)c1ccccc1 (stereo unspecified)
survivor count (dose: 300.0 mg/kg/injection, schedule: Q01DX001 (ip), vehicle: other): 0 of 6

[NH-]CC([NH-])=O.[NH-]CC([NH-])=O.[Ni]
survivor count (dose: 25.0 mg/kg/injection, schedule: Q01DX009 (ip), vehicle: water): 3 of 6
survivor count (dose: 100.0 mg/kg/injection, schedule: Q04DX003 (ip), vehicle: water): 2 of 6
survivor count (dose: 200.0 mg/kg/injection, schedule: Q04DX003 (ip), vehicle: water): 0 of 6
survivor count (dose: 400.0 mg/kg/injection, schedule: Q04DX003 (ip), vehicle: water): 0 of 6

Nc1ncn(C2CC(OC(=O)c3ccc(Cl)cc3)C(COC(=O)c3ccc(Cl)cc3)O2)c(=O)n1 (stereo unspecified)
T/C (dose: 200.0 mg/kg/injection, schedule: Q01DX005 (ip), vehicle: saline): 144 % of control

O=C(CCC(=O)c1ccccc1)OCc1ccccc1
survivor count (dose: 400.0 mg/kg/injection, schedule: Q04DX002 (ip), vehicle: Klucel (hydroxypropylcellulose) (HPC)): 3 of 3

CC1(C)N=C(N)N=C(N)N1c1cccc(OCCCOc2cccc(N)c2)c1
survivor count (dose: 100.0 mg/kg/injection, schedule: Q01DX001 (ip), vehicle: saline with Tween-80): 1 of 6
survivor count (dose: 100.0 mg/kg/injection, schedule: Q01DX001 (ip), vehicle: saline): 0 of 6
survivor count (dose: 200.0 mg/kg/injection, schedule: Q01DX001 (ip), vehicle: saline with Tween-80): 1 of 6
survivor count (dose: 400.0 mg/kg/injection, schedule: Q01DX001 (ip), vehicle: saline with Tween-80): 0 of 6

CSc1sc2ccc(S(=O)(=O)O)cc2[n+]1C
survivor count [1]: 5 of 6

O=C(NCCCl)NC1CCCc2ccccc21 (stereo unspecified)
survivor count (dose: 100.0 mg/kg/injection, schedule: Q01DX009 (ip), vehicle: Klucel (hydroxypropylcellulose) (HPC)): 2 of 6
survivor count (dose: 200.0 mg/kg/injection, schedule: Q01DX009 (ip), vehicle: Klucel (hydroxypropylcellulose) (HPC)): 2 of 6
survivor count (dose: 400.0 mg/kg/injection, schedule: Q01DX001 (ip), vehicle: Klucel (hydroxypropylcellulose) (HPC)): 0 of 6

CCCCN(C)/N=N/c1nc[nH]c1C(=O)OC
survivor count (dose: 100.0 mg/kg/injection, schedule: Q01DX015 (ip), vehicle: carboxymethylcellulose (CMC)): 6 of 6

O=c1[nH]c(=O)n(O)c2nc[nH]c12
survivor count (dose: 200.0 mg/kg/injection, schedule: Q04DX003 (ip), vehicle: saline with Tween-80): 6 of 6
survivor count [1]: 4 of 6

Clc1ccc(/C=C/c2nc(Cl)c(-c3ccc(Cl)cc3)c(Cl)n2)cc1
survivor count (dose: 75.0 mg/kg/injection, schedule: Q04DX003 (ip), vehicle: Klucel (hydroxypropylcellulose) (HPC)): 6 of 6

CCCCCCCCCCSCCSCCSCCCCCCCCCC
survivor count (dose: 200.0 mg/kg/injection, schedule: Q04DX003 (ip), vehicle: Klucel (hydroxypropylcellulose) (HPC)): 6 of 6
survivor count (dose: 400.0 mg/kg/injection, schedule: Q04DX003 (ip), vehicle: Klucel (hydroxypropylcellulose) (HPC)): 6 of 6
